The other results are listed elsewhere or left out. The data scatter; read single values as rough.
Tests used:
[1] = compound: ClCC(=O)N[C@@H]1CCCc2ccccc12; test: log2 mean competition ratio of IA-DTB cysteine labelling (DMSO/compound) (log2 ratio); higher = stronger cysteine engagement by compound; conditions: treatment time: 4 h, cell line lysate: HEK293T
Protocol: (§1)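 IA-DTB competitive cysteine chemoproteomics in HEK293T RIPA lysate. Lysates were treated with compound 29 or 30 at 50 or 200 µM for 4 h, then IA-DTB (500 µM, 1 h), trypsin-digested, NeutrAvidin-enriched and analysed by diaPASEF. Competition ratio = intensity DMSO / intensity compound (n=4 treated, n=64 DMSO); binding: mean log2 CR ≥ 1 and p ≤ 0.05 plus QC filters. Target is the cysteine site.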

The chains behind the UniProt entries cited, without tags or fusion partners. Where a name states a change or a piece, a line headed by the entry shows the natural chain unless it says otherwise. Residues count along the entry.
UniProt P24588, whole entry, looked up: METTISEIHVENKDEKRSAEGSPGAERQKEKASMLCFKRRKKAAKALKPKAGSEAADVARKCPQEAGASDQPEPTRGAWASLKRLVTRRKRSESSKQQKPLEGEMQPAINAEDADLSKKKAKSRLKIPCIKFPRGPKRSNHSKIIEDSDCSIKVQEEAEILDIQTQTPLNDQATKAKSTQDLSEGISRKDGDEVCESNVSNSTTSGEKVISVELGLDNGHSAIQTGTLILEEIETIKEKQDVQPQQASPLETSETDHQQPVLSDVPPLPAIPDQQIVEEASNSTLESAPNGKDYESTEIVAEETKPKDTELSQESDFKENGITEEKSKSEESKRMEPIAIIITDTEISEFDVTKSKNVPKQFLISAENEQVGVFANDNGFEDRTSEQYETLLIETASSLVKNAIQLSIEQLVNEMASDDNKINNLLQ
UniProt Q12802: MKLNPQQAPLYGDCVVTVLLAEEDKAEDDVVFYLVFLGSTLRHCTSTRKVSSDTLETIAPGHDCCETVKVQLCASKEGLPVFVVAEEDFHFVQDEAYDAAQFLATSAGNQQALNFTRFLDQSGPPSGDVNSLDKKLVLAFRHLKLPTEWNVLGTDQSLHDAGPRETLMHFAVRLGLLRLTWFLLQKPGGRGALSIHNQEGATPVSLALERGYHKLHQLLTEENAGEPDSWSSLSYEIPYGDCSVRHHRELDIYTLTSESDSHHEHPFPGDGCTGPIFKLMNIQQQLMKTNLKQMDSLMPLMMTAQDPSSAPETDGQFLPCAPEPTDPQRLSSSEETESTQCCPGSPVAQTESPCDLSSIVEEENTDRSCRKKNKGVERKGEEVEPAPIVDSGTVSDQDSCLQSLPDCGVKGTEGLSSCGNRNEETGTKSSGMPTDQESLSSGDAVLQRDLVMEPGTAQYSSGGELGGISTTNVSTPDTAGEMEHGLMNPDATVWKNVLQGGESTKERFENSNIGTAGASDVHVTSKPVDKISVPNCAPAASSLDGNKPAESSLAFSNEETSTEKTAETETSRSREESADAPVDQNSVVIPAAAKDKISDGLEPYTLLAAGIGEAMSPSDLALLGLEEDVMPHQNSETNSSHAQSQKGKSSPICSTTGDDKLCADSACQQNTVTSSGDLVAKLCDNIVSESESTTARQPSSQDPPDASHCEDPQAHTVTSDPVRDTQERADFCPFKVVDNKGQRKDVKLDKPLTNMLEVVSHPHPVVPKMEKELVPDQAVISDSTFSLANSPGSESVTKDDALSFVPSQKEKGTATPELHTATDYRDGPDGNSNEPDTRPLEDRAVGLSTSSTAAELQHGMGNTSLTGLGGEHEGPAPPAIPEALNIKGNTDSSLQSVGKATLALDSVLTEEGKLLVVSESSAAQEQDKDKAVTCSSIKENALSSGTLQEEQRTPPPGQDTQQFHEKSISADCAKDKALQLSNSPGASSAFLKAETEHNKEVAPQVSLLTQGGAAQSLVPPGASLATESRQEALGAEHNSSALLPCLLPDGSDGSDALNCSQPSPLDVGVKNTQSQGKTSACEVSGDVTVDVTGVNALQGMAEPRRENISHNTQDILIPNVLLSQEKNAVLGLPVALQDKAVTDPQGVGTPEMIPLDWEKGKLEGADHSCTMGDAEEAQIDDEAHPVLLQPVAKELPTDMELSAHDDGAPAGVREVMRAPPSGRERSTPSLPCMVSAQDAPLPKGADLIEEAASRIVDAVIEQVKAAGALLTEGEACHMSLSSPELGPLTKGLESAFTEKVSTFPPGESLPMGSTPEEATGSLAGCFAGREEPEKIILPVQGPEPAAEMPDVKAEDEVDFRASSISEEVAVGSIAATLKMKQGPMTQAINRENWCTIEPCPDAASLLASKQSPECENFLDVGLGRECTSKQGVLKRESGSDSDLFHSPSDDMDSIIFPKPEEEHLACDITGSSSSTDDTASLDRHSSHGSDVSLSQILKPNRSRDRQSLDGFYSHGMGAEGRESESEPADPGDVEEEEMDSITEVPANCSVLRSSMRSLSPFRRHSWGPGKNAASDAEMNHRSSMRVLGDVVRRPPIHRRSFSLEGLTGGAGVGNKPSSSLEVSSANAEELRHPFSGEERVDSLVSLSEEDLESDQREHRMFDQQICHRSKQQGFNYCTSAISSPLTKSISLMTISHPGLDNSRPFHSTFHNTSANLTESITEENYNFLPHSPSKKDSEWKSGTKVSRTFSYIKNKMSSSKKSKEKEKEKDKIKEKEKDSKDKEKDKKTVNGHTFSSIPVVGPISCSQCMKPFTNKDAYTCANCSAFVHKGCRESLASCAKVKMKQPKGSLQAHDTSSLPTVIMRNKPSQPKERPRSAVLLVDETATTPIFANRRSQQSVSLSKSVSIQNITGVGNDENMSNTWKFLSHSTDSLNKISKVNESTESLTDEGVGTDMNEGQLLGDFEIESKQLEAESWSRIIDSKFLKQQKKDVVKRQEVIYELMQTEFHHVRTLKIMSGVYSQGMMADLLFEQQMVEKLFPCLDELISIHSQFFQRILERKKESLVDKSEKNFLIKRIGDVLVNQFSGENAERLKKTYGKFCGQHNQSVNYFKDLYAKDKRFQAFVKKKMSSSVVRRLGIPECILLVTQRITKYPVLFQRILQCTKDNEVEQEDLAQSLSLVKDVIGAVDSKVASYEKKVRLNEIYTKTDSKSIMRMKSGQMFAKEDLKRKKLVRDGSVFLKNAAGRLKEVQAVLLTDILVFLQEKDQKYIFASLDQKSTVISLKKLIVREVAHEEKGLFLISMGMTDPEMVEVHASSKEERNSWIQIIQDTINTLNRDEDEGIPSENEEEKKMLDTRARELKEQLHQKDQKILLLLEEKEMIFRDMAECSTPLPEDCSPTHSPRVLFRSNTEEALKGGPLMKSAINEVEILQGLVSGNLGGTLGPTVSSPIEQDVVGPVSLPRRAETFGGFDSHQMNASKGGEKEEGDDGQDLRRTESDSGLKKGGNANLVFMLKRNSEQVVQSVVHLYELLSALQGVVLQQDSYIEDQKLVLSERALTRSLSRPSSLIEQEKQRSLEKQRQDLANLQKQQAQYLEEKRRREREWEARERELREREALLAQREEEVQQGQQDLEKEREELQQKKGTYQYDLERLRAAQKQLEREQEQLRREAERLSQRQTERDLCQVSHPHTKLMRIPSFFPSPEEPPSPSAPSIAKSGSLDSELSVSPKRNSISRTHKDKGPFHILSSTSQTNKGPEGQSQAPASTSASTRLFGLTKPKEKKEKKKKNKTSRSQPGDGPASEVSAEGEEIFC
UniProt Q9BSE5: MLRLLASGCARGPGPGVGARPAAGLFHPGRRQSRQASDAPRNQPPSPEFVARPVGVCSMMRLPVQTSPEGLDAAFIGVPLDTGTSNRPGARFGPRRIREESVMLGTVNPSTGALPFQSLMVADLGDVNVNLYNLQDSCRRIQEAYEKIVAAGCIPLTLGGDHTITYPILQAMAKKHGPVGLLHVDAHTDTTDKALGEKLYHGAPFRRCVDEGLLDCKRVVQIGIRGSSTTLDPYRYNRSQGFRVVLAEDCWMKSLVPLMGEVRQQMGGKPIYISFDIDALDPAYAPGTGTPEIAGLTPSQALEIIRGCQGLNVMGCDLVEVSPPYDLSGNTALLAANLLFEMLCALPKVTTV
UniProt Q8N556, 675-702: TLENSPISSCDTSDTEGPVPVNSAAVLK
UniProt Q53H12, 41-61: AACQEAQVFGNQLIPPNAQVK

[2] = compound: ClCC(=O)N[C@H]1CCCc2ccccc12; test: as above; conditions: treatment time: 4 h, cell line lysate: HEK293T
Protocol: as §1

Target	log2 mean competition ratio ([1]; 200 µM)	log2 mean competition ratio ([2]; 50 µM)	log2 mean competition ratio ([2]; 200 µM)	log2 mean competition ratio ([1]; 50 µM)
AKAP5 C36 (UniProt P24588)	0.35	0.752	0.537	–
AKAP13 C934 (UniProt Q12802)	-0.307	0.444	-0.241	-0.0335
AGMAT C250 (UniProt Q9BSE5)	–	0.221	–	-0.00916
AFAP1 C684 (UniProt Q8N556)	-0.443	0.35	-0.335	0.105
AGK C43 (UniProt Q53H12)	-0.168	0.546	-0.0137	-0.00382

Source: the supplement of paper PMC11732987, “Enantioselective OTUD7B fragment discovery through chemoproteomics screening and high-throughput optimisation” (Communications Chemistry, 2025)
